Results are given in words; binding and its absence hold for the method and conditions named. Some binding calls cover weakened binding; strength is not graded here.
T1: AtFIPS5 (Arabidopsis) (UniProt F4KDH9)
T1 sequence: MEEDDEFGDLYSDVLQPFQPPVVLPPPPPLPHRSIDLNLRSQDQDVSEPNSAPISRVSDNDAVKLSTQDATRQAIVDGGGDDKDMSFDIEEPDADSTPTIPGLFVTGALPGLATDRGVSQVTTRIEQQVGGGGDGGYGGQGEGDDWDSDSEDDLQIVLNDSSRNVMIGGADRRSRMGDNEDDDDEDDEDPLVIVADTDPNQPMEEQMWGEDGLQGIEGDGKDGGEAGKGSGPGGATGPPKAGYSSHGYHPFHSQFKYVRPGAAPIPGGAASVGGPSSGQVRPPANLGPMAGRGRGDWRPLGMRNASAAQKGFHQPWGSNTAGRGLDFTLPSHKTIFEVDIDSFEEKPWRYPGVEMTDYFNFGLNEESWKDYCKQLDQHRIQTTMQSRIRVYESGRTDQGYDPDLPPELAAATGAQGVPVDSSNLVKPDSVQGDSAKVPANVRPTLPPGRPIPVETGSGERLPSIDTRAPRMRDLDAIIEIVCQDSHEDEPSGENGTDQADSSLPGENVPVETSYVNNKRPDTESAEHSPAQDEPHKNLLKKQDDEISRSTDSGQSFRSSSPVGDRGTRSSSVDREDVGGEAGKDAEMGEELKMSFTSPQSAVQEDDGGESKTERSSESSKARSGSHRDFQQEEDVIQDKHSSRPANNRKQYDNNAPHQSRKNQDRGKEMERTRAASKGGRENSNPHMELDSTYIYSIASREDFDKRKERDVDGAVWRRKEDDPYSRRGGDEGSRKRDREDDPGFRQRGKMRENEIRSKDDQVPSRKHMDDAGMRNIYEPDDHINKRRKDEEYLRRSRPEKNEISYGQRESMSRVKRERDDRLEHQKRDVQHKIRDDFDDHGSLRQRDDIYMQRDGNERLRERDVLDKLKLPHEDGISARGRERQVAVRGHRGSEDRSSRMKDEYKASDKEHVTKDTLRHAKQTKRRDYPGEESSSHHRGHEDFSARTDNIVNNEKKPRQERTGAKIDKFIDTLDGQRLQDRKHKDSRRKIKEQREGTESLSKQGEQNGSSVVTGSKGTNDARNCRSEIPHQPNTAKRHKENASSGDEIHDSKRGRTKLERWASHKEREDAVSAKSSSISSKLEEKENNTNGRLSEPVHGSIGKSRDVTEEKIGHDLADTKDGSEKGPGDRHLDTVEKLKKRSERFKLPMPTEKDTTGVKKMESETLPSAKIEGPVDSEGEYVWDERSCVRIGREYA

B1: AtPAPS1 (protein, UniProt Q9LMT2 1-713)
chain: MASVQQNGQRFGVSEPISMGGPTEFDVIKTRELEKHLQDVGLYESKEEAVRREEVLGILDQIVKTWIKTISRAKGLNDQLLHEANAKIFTFGSYRLGVHGPGADIDTLCVGPRHATREGDFFGELQRMLSEMPEVTELHPVPDAHVPLMGFKLNGVSIDLLYAQLPLWVIPEDLDLSQDSILQNADEQTVRSLNGCRVTDQILRLVPNIQNFRTTLRCMRFWAKRRGVYSNVSGFLGGINWALLVARICQLYPNALPNILVSRFFRVFYQWNWPNAIFLCSPDEGSLGLQVWDPRINPKDRLHIMPIITPAYPCMNSSYNVSESTLRIMKGEFQRGNEICEAMESNKADWDTLFEPFAFFEAYKNYLQIDISAANVDDLRKWKGWVESRLRQLTLKIERHFKMLHCHPHPHDFQDTSRPLHCSYFMGLQRKQGVPAAEGEQFDIRRTVEEFKHTVNAYTLWIPGMEISVGHIKRRSLPNFVFPGGVRPSHTSKGTWDSNRRSEHRNSSTSSAPAATTTTTEMSSESKAGSNSPVDGKKRKWGDSETLTDQPRNSKHIAVSVPVENCEGGSPNPSVGSICSSPMKDYCTNGKSEPISKDPPENVVAFSKDPPESLPIEKIATPQAHETEELEESFDFGNQVIEQISHKVAVLSATATIPPFEATSNGSPFPYEAVEELEVLPTRQPDAAHRPSVQQRKPIIKLSFTSLGKTNGK
B2: AtPAPS2 (protein, UniProt O82312 1-800)
chain: MVSTQQRTDDDSSQPVKASLKSYGITEPLSIAGPSAADVKRNLELEKFLVDEGLYESKEETMRREEVVVRIDQIVKHWVKQLTRQRGYTDQMVEDANAVIFTFGSYRLGVHGPMADIDTLCVGPSYVNREEDFFIFFRDILAEMEEVTELQPVTDAHVPVMKFKFQGISIDLLYASISLLVIPQDLDISNSSVLCDVDEQTVRSLNGCRVADQILKLVPNSEHFRTTLRCLKYWAKKRGVYSNVTGFLGGVNWALLVARLCQFYPNAIPSMLVSRFFRVYTQWRWPNPVMLCAIEEDDLSFPVWDPRKNHRDRYHLMPIITPAYPCMNSSYNVSQSTLRVMTEQFQFGNTICQEIELNKQHWSSLFQQYMFFEAYKNYLQVDVLAADAEDLLAWKGWVESRFRQLTLKIERDTNGMLMCHPQPNEYVDTSKQFRHCAFFMGLQRADGFGGQECQQFDIRGTVDEFRQEVNMYMFWRPGMDVHVSHVRRRQLPSFVFPNGYKRSRQSRHQSQQCREPGDEGVGSLSDSVERYAKRKNDDEIMNSRPEKREKRASCSLHTLDAASPDSSGITTSGTPQIGIVPGPRAECLVTGDLVCNVTSLPNVEVEAEKFISKITELRKFSQYEHTSGSEQILEVDSRALVQSYHDLAEPVAKHVRPDLSALLACEGGQNKEIGHDMGSESINDTDTQHLPRRLNVNEDVDEVEREAKLGEIAGGVLWNGHCGRNLDHEGFVTPANLDSAVENRNLHSDGLFKSGLPEELQSNSLLSGTGKLDDGARSESLQNEMMRHVFLQPIIGLCKS
B3: AtPAPS3 (protein, UniProt Q56XM9 1-507)
chain: MKKGGGRNKGFPQDDESSISLRQLMVNEGLIPSLEDEVKRRGVINQLRKIVVRWVKNVAWQHRLPQNQIDATNATILPYGSYGLGVYGSESDIDALCIGPFFASIAEDFFISLRDMLKSRREVSELHCVKDAKVPLIRFKFDGILVDLPYAQLRVLSIPNNVDVLNPFFLRDIDETSWKILSGVRANKCILQLVPSLELFQSLLRCVKLWAKRRGVYGNLNGFLGGVHMAILAAFVCGYQPNATLSSLLANFFYTFAHWQWPTPVVLLEDTYPSTGAPPGLMPIQLPCGSHQYCNSTITRSTFYKIVAEFLLGHNLTKDYLKLNFSWKDLFELYPYANTYTWFTKIHLSAANQEDLSDWVGWVKSRFRCLLIKIEEVYGICDPNPTEYVETYTKQPNIVFYWGLQLRTINVSDIESVKIDFLKNVNSGSFRGTVGRIQLTLVKASQLPKNGECGSNNRSKKVTKTCWRIREDKQCNNVPVYSKHLPGYVVGYQKMVNREADGMEVKC
B4: AtPABN1 (protein, UniProt Q9FJN9 1-220)
chain: MEEEEHEVYGGEIPDVGEMDGDMEALNPDLDMAAADDDAVKELDEMKKRLKEMEDEAAALREMQAKVEKEMGAQDPASIAANQAGKEEVDARSVFVGNVDYACTPEEVQQHFQTCGTVHRVTILTDKFGQPKGFAYVEFVEVEAVQEALQLNESELHGRQLKVLQKRTNVPGLKQFRGRRFNPYMGYRFRRPFMSPYMYSPYGYGKAPRFRRPMRYMPYQ
B5: AtPABN3 (protein, UniProt Q9LX90 1-217)
chain: MEEEEHEVYGGEIPEVGDTDVPDPDIDMSAADEDAVTELAEMKRRLKEMEEEAAALREMQAKVEKEMGATQDPASMAANQEGKEEVDARSVYVGNVDYACTPEEVQLHFQTCGTVNRVTILMDKFGQPKGFAYVEFVEVEAVQEALQLNESELHGRQLKVSPKRTNVPGMKQYHPGRFNPSMGYRFRRPFVPPYFYSPYGYGKAPRFRRPMRYMPYQ
B6: AtCSTF64 (protein, UniProt Q9M9G6 1-461)
chain: MASSSSQRRCVFVGNIPYDATEEQLREICGEVGPVVSFRLVTDRETGKPKGYGFCEYKDEETALSARRNLQSYEINGRQLRVDFAENDKGTDKTRDQSQGGPGLPSTTTVTESQKQIGGPVDSNMHQPVGLHLATTAASVIAGALGGPQVGSQFTQSNLQVPASDPLALHLAKMSRSQLTEIISSIKLMATQNKEHARQLLVSRPQLLKAVFLAQVMLGIVSPQVLQSPNIVQAPSHMTGSSIQDAQLSGQNLLPPLAQRSQQLSRAPHSQYPVQQSSKQPFSQIPQLVAQPGPSSVNPPPRSQVKVENAPFQRQQVVPASTNIGYSSQNSVPNNAIQPSQVPHQALPNSVMQQGGQTVSLNFGKRINEGPPHQSMNRPSKMMKVEDRRTTSLPGGHVSNSMLPNQAQAPQTHISPDVQSTLLQQVMNLTPEQLRLLTPEQQQEVLKLQQALKQDHMMQPS

Biological target: T1, AtFIPS5 (Arabidopsis)
Test: two-hybrid; AD (pGAD-C(1)) and BD (pGBD-C(1)) fusions in yeast PJ69-4; dual transformants tested on media lacking leucine, tryptophan and adenine; positive if all tested colonies (4 to 10) grew; both combinations of clones tested whenever possible

Row | Binder | binding
1 | B1 | binds
2 | B2 | binds
3 | B3 | binds
4 | B4 | binds
5 | B5 | binds
6 | B6 | binds
